Primary screen of a compound library

The filed quantity is “Percent Effect” (%).
The controls that fix the scale are not given in the record; negative values are as filed.
This is an unselected part of the compounds tested.
Two or more numbers in one place are separate tests of the same structure; such repeats can differ widely.

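Viability assay of Plasmodium falciparum sporozoites; the read-out is not stated. The concentration is filed as 10 mM, unlikely as a test dose, so the dose is not known. The record gives no direction; compounds that gave an IC50 in retests scored well above the rest, so higher reads as lower viability. Strong results were mostly tested again. Size under these conditions: about 34,000 compounds, about 280 of them at 50% or above in at least one test.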

- COc1ccc(NC(=O)CCC2CCCN(Cc3ncon3)C2)c(C)c1 (centres unmarked) | 8.155%
- CCC(O)CN1CCN(C(=O)c2cccn2Cc2cccnc2)CC1 (centres unmarked) | 11.36%
- CCn1ncc2c1C(COC)N(C(=O)c1cscn1)CC2.O=C(O)C(F)(F)F (centres unmarked) | 10.13%
- CNC(=O)c1ccc(-c2ccc(CNC(=O)COC)cc2)nc1C | 0.6113%
- CN(C)C(=O)C1CN(Cc2ccccc2)CCN(S(C)(=O)=O)C1 (centres unmarked) | -1.066%
- CC1CN(c2ncccc2C(=O)Nc2cccc3c2CCCC3)CCN1 (centres unmarked) | -9.739%
- COCCN1CCC(CNC(=O)C2(C#N)CCCC2)CC1 | 12.12%
- Cc1ccc(-c2cc(N)c(=O)n(CC(=O)NCC3CCCCC3)n2)s1 | -22.87%
- Cc1csc(N2CCN(Cc3ccccn3)CC2C)n1 (centres unmarked) | -1.063%
- [H][C@@]12CN(C(=O)c3ccc(N(C)C)cc3)C[C@]1([H])OCCN2C(C)C | 1.23%
- CC(C)c1nnc2n1CCN(CC(=O)Nc1sccc1C#N)C2 | 1.222%
- CC(C)(C)c1n[nH]c(C2CN(C(=O)c3csnn3)CCO2)n1 (centres unmarked) | -9.357%
- OCCn1nccc1C1CCN(CCOc2ccc(Cl)cc2)CC1 | -4.937%
- Cc1noc(C)c1C(=O)N1CCC(c2cc3cnccc3[nH]2)CC1 | 8.47%
- CC(NC(=O)CCC(=O)c1cccs1)c1nnc2n1CCCCC2 (centres unmarked) | -7.602%
- CCn1cncc1C1CC(=O)Nc2c1c(C)nn2-c1ccc(C)cc1 (centres unmarked) | 3.084% & 0.07424%
- CC(=O)N(Cc1ncc(C)o1)C1CCN(Cc2cccc(C#N)c2)C1 (centres unmarked) | 4.614%
- Cc1cnn(CCNCC(=O)NCCOc2ccc(Cl)cc2)c1 | -12.48%
- Cc1nn(-c2ccccc2)cc1C(=O)N1CCCC1c1cnn(C)c1 (centres unmarked) | -26.31% & 13.63% & -23.72%
- O=C(NCCN1CCOCC1)c1cc(-c2ccc3c(c2)CCO3)n[nH]1 | -16.23% & 7.412% & 6.925%
- Cc1ccc(C(=O)N2CCN(Cc3ccc(C#N)cc3)CC2)n1C | -2.432%
- CCN1CCn2c(C)cnc2C12CCN(C(=O)C(C)C)CC2.O=C(O)C(F)(F)F.O=C(O)C(F)(F)F | -7.942%
- CCOC(=O)COC1CCN(C(C)=O)CC(=O)N(C)c2ccccc21 (centres unmarked) | -31.88%
- c1cc(CN2CCc3cncnc3C2)c2c(c1)OCCO2 | 7.119%
- [H][C@@]12CN(c3ncccn3)C[C@@H](C(=O)NCCOC)[C@]1([H])CCO2 | 6.229%
- Cn1ccc(C(=O)N2CCCC2c2cc(CO)[nH]n2)n1 (centres unmarked) | 6.16%
- COc1cccc(CNCc2c(C)nc3sc(C)cn23)c1OC | -1.302%
- O=C(CCCOCc1ccccc1)N1CCCC(n2cncn2)C1 (centres unmarked) | 0.7727%
- CSCC(C)(O)CNC(=O)c1cc(Br)ccc1Cl (centres unmarked) | -4.368%
- COC(=O)C(c1ccccc1)N(C)C(=O)c1ccnc(C)n1 (centres unmarked) | -1.005%
- O=C(N1CCCC(n2cncn2)C1)C1(c2ccccc2F)CCCC1 (centres unmarked) | 0.3108%
- COc1ccc(C)cc1C(C)NC(=O)Cn1ccc(=O)n(C)c1=O (centres unmarked) | 7.36%
- CCN1CCOCC12CCN(C(=O)C1CCC1)CC2.O=C(O)C(F)(F)F | 3.971%
- Cc1noc(C)c1CN1CCOC2(CCCN(c3nccs3)C2)C1 (centres unmarked) | 12.23%
- Cc1cc(C(=O)N2CC[C@H](OCC3CC3)[C@@H]2Cc2cccnc2)no1 | -2.489%
- CC(C)(C)c1n[nH]c(C2CN(Cc3nnc(C4CC4)o3)CCO2)n1 (centres unmarked) | 7.131%
- NC(=O)c1cc(C2CCCN(CCc3ccc4c(c3)CCO4)C2)n[nH]1 (centres unmarked) | 1.791%
- CCc1nccn1C1CCCN(C(=O)c2ccc(C(N)=O)cn2)C1 (centres unmarked) | -9.265%
- CCOc1ccc(Cl)cc1CCNC(=O)c1ccc(=O)n(C)c1 | -0.7785%
- CCOCC1CN(C(=O)Cc2ccccn2)Cc2cn(C)nc21 (centres unmarked) | -2.676%
- CC(C)c1nn(C)c(N2CCOCC2)c1CNC(C)c1cccs1 (centres unmarked) | 2.2%

From ChEMBL document CHEMBL3988442, “University of Dundee, Small-Polar-MMV Screening Library” (2021).